# PubChem BioAssay AID2685 (National Center for Advancing Translational Sciences (NCATS), 2010)
# The whole screen tested about 320,000 compounds, of which about 2,100 (0.66%) were called active. Inconclusive means that the source gave no clear call. Such entries were picked first, then a sample of the others. Calls follow the shape of the dose curve; as a rule, active = well fitted inhibition curve with a large enough effect in the signal ratio, with a control signal flat (not every such curve was filed as active); inconclusive = small, poorly fitted or top-dose-only effect, or effect the other way, or a change in a side signal; inactive = flat fitted curve, though single readings scatter; the % refers to the signal ratio. Where the call is inconclusive, the potency comes from a doubtful curve fit.
# Experiment: qHTS Assay for Lipid Storage Modulators in Drosophila S3 Cells
# Settings: BODIPY lipid droplet fluorescence, 18-24 h, cells fed with added oleic acid; lipid storage change, negative = inhibition: at 46.1 µM (top of the series) unless noted
# In short: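 Drosophila S3 cells loaded with oleic acid (400 uM, as added) and compounds at several concentrations; lipid droplets imaged by 488-nm laser-scanning cytometry, 500–530 nm intensity and object ratio to cell channel. Percent activity normalized to 20 uM Triacsin C.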
# % is scaled to controls: 0 for no effect and ±100 for the full control effect; potency is read from the fitted curve at half-maximal effect.
Structure (SMILES),"lipid storage change, negative = inhibition",Potency
COCCn1c(SCC(=O)Nc2cc(C)on2)nc2c(c1=O)SC(C)C2 (centres undefined),inactive,–
CCO[C@@H]1OC(C(=O)N2CCN(C)CC2)=C[C@H](C(C)(C)C)[C@H]1CCCO,inconclusive: -12.4%,–
NC(=O)c1ccc2c(=O)n3c(-c4cccs4)csc3nc2c1,inconclusive: 27.9%,–
Cc1ccnc(N(C(=O)c2cccs2)C(=O)c2cccs2)c1,–,"inconclusive: 20.6 µM [activator, partial curve, poor fit]"
CCCCn1c(=O)n(CC(O)c2ccccc2)c(=O)c2c1ncn2C1CCCC1 (centres undefined),inconclusive: 15.4%,–
CC(=O)Nc1ccc(C(=O)n2cnc3cc(C)c(C)cc32)cc1,–,"inconclusive: 29.1 µM [falling, single point]"
COc1ccccc1N1CCN(Cc2cc3c(cc2O)OCO3)CC1,–,"inconclusive: 0.58 µM [falling, single point]"
Cc1nc(N2CCN(S(=O)(=O)c3ccccc3C#N)CC2)c2c(-c3ccccc3)csc2n1,inconclusive: -28.4%,–
O=C1NC2(CCCCC2)C(=O)N1Cc1cc(=O)n2ccsc2n1,inconclusive: 8.48%,–
O=C(Nc1ccc(N2CCOCC2)cc1)C1CCN(C(=O)OCc2ccccc2)CC1,inconclusive: 0.0136%,–
c1cc(CNc2ccc(N3CCOCC3)cc2)ccn1,inconclusive: 10.1%,–
CCOC(=O)CSc1ncnc2c1cnn2-c1ccc(C)cc1,inconclusive: 44.3%,–
CC(CN1CCOCC1)C(=O)c1ccccc1 (centres undefined),inconclusive: 42.7%,–
Cc1ccc(-n2nc(C)c3c2OC(N)=C(C#N)C3c2ccccc2F)cc1 (centres undefined),inconclusive: -19.6%,–
O=C(C[n+]1cccc(C(=O)N/N=C/c2ccc(Br)cc2)c1)c1ccccc1,–,"inconclusive: 29.1 µM [activator, single point]"
O=C(CSc1ncccn1)N/N=C/c1ccc2c(c1)OCO2,–,"inconclusive: 2.06 µM [rising, full curve, poor fit]"
Cc1c(F)cccc1NS(=O)(=O)c1ccc2c(c1)c(=O)n(C)c(=O)n2C,inconclusive: 14.3%,–
Cc1ccc(S(=O)(=O)N2CCN(S(C)(=O)=O)C2c2ccccc2)cc1 (centres undefined),–,"inconclusive: 23.1 µM [cytotoxic, partial curve, poor fit]"
N#CCCN(C(=O)COC(=O)c1ccc2ccccc2n1)c1ccccc1,inconclusive: -0.139%,–
Cc1ccc(C(=O)OCC(=O)NC2CCCC(C)C2C)cc1S(=O)(=O)N1CCCCC1 (centres undefined),–,"inconclusive: 3.66 µM [falling, single point]"
O=C(c1cc(-c2cccnc2)nc2ccccc12)N1CCCc2ccccc21,inconclusive: 27.4%,–
COc1ccccc1CC(=O)Nc1ccc2c(c1)C(=O)NC2=O,–,"inconclusive: 0.0046 µM [falling, full curve, poor fit]"
C=CCNC(=O)CSc1ncc2c(n1)-c1c(csc1SC)CC2,inconclusive: -0.257%,–
CSc1nc2sc3c(c2c2nncn12)CCC3,–,"inconclusive: 5.8 µM [activator, single point]"
CC1(C)Cc2c(cnn2-c2ccccc2)C(NC(=O)CCc2ccncc2)C1 (centres undefined),–,"inconclusive: 29.1 µM [activator, single point]"

# Four entries from above in a different format.
Structure (SMILES)	lipid storage change, negative = inhibition	Potency
NC(=O)c1ccc2c(=O)n3c(-c4cccs4)csc3nc2c1	inconclusive: 27.9%	–
CC(=O)Nc1ccc(C(=O)n2cnc3cc(C)c(C)cc32)cc1	–	inconclusive: 29.1 µM [falling, single point]
COc1ccccc1N1CCN(Cc2cc3c(cc2O)OCO3)CC1	–	inconclusive: 0.58 µM [falling, single point]
Cc1nc(N2CCN(S(=O)(=O)c3ccccc3C#N)CC2)c2c(-c3ccccc3)csc2n1	inconclusive: -28.4%	–

# (continued)

Structure (SMILES),"lipid storage change, negative = inhibition",Potency
CC1=CCC2C(=O)N(c3cccc(C(=O)Nc4ccc(Cl)cc4)c3)C(=O)C2C1 (centres undefined),inconclusive: -75%,–
COc1ccccc1C(=O)NC(=O)COC(=O)c1ccc(Cl)nc1,inconclusive: 11.6%,–
CN(C)S(=O)(=O)c1cccc(-c2cn3cccnc3n2)c1,inconclusive: 25.4%,–
Cc1cc(=O)[nH]c(N=N/C(=N/Nc2ccccc2C)c2ccccc2)n1,–,"inconclusive: 4.11 µM [activator, single point]"
CCOC(=O)c1nnc(-c2ccc(C)cc2)nc1Oc1ccc(Cl)cc1Cl,inconclusive: 26.7%,–
Cc1c(C(=O)Nc2cccc(F)c2)cnn1-c1ccccc1,–,"inconclusive: 29.1 µM [falling, single point]"
CC1(C)CC(=O)C=C(NCCCNC2CCCCC2)C1,inconclusive: 17.2%,–
COc1ccc(C(OCC2CO2)c2ccc(OC)cc2)cc1 (centres undefined),inconclusive: 11.1%,–
FC(F)Oc1ccc(-n2cc(-c3ccc(Cl)cc3)[n+]3c2CCCCC3)cc1,inconclusive: 23.3%,–
O=[N+]([O-])c1ccc(Nc2ccccc2)c2nonc12,–,"inconclusive: 29.1 µM [cytotoxic, partial curve, poor fit]"
O=C(Cn1ncc2c1-c1ccccc1OC2)Nc1ccc(S(=O)(=O)N2CCCCC2)cc1,–,"inconclusive: 0.651 µM [falling, full curve]"
O=C(Nc1cccc(Cl)c1)Nc1ccc(Cl)cn1,inconclusive: 2.15%,–
COc1ccccc1CN(C)C(=O)c1cc2ccccc2o1,–,"inconclusive: 0.206 µM [falling, full curve, poor fit]"
CCc1cccc(C)c1NC(=O)c1cc(=O)[nH]c2ccc(S(=O)(=O)N3CCOCC3)cc12,inconclusive: 108%,–
Cn1ncc(Cl)c1C(=O)Nc1ccc2c(c1)CCC2,–,"inconclusive: 0.116 µM [activator, full curve, poor fit]"
Nc1ccc(Oc2ccc([N+](=O)[O-])cc2[N+](=O)[O-])cc1,inconclusive: 4.61%,–
O=C(Cn1nnc(-c2cccs2)n1)NNC(=O)c1ccccc1Cl,inconclusive: -1.67%,–
Cc1cc(C(=O)NCc2ccc(C(=O)O)o2)c(C)o1,–,"inconclusive: 2.06 µM [falling, full curve, poor fit]"
CCOC(=O)Cc1nnc(NC(=O)CSc2ccc(C)cc2)s1,inactive,–
CCOc1ccccc1/C=N/Nc1ccnc(=O)[nH]1,inconclusive: 19.1%,–
C/C(=N\N1CCN(c2ccc(Cl)cc2)CC1)c1cccs1,–,"inconclusive: 7.31 µM [rising, partial curve]"
Cc1noc(C)c1CC(=O)NC1CC(C)(C)Cc2c1cnn2-c1ccccc1 (centres undefined),inconclusive: -33.2%,–
Cc1ccccc1NC(=O)CC(=O)c1ccccc1,inconclusive: 26.9%,–
O=C(NCc1ccc2c(c1)OCO2)c1ccc(Br)o1,inconclusive: 18.4%,–
